One molecule from publication doi:10.1101/2020.07.25.220095 can be followed below.

Results are given in words; binding and its absence hold for the method and conditions named. Binding seen in cells or lysates may run through a third protein. Some results given as binding are weak or reduced against the parent protein; the word gives no strength. Sequences can lack the tags named with a protein.

Experiment [1] addresses T1, Nsr1 (TAP-tagged version) (S. cerevisiae (TAP-tagged yeast strain)) (UniProt P27476).
T1 sequence: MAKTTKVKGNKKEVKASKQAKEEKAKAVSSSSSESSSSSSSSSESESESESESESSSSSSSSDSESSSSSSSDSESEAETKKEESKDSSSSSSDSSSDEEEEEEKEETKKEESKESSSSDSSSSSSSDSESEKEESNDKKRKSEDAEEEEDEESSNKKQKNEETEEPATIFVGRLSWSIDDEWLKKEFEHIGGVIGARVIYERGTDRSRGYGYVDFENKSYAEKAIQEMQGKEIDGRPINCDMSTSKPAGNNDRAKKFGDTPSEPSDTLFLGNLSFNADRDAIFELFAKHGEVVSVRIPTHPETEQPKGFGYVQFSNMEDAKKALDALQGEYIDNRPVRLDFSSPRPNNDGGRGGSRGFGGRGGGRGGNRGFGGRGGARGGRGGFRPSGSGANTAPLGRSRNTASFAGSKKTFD
Briefly: pull-down.

The target of experiment [2] is T2, Puf2 (TAP-tagged version) (S. cerevisiae (TAP-tagged yeast strain)) (UniProt Q12221).
T2 sequence: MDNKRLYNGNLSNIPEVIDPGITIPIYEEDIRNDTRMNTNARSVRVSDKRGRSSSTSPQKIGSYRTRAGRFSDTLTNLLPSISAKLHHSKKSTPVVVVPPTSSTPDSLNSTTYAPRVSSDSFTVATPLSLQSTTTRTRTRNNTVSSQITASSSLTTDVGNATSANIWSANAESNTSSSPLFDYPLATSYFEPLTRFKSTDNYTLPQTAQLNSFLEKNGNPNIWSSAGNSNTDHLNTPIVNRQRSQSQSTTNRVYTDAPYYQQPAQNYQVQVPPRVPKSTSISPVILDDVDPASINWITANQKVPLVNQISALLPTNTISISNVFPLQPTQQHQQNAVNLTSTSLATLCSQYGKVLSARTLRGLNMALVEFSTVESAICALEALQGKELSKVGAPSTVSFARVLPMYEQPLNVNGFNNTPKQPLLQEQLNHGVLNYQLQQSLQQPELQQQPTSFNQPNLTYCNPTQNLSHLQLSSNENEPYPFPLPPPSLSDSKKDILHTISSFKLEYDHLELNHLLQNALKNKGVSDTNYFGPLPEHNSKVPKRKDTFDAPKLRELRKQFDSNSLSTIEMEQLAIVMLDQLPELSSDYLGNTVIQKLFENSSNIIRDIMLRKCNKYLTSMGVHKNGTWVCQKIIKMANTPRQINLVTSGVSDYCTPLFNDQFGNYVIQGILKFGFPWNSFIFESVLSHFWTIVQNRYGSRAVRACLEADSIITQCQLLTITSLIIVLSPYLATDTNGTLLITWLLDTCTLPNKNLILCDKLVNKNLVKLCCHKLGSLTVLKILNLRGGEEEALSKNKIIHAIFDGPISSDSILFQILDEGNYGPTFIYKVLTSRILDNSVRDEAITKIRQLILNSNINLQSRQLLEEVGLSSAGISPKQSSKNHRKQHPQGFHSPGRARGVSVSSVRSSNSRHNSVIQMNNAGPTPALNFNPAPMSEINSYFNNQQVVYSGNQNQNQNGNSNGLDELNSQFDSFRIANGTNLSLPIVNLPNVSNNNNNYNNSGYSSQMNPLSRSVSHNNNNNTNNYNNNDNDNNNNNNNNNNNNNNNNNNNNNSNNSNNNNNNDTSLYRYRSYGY
Briefly: pull-down.

B1: Rpb4 (protein, UniProt P20433 1-221)
chain: MNVSTSTFQTRRRRLKKVEEEENAATLQLGQEFQLKQINHQGEEEELIALNLSEARLVIKEALVERRRAFKRSQKKHKKKHLKHENANDETTAVEDEDDDLDEDDVNADDDDFMHSETREKELESIDVLLEQTTGGNNKDLKNTMQYLTNFSRFRDQETVGAVIQLLKSTGLHPFEVAQLGSLACDTADEAKTLIPSLNNKISDDELERILKELSNLETLY
On to B1, for which the binding entry in experiment [1] and in experiment [2] was “binds weakly” each time.
